Experimental data: article PMC8861638, “Human iPSC-derived renal organoids engineered to report oxidative stress can predict drug-induced toxicity” (iScience, 2022)

Test system: hiPSC-derived flat renal organoids
Experiment: RNA-seq of wild-type hiPSC-derived flat renal organoids treated with gentamicin for 24 h
Format: cell-based, human
Text: Although some transporters were more strongly expressed in the 3D organoids, the presence of Megalin and Cubulin in the flat organoids, combined with their increased suitability for high-throughput analyses, led us to adopt this form of organoid to identify a potential reporter for toxic insults in renal organoids. hiPSCs were differentiated into flat renal organoids, and their renal identity was verified by confirming expression of common renal markers (as described above and in the Methods section). We treated these flat renal organoids for 24 h with the known nephrotoxicant, gentamicin ([Regec et al., 1986], [1989]; [El Mouedden et al., 2000]), at 1 or 4 mg/mL, leaving some as vehicle-only controls (3 separate organoids per condition). Gentamicin was chosen based on the presence of Megalin and Cubulin in these organoids because they are the main endocytic receptors involved in gentamicin uptake into proximal tubule cells ([Schmitz et al., 2002]) and would be expected to be necessary for a realistic toxic response. The transcriptomes of renal organoids in these three conditions were compared using RNA-seq analyses.
In contrast, treatment with 4 mg/mL gentamicin caused the expression of 2,221 genes to increase and that of 1770 to decrease. Among the transcripts showing increased expression was KIM-1 (log fold-change: 1.67; FDR-corrected p = 0.03), a biomarker commonly associated with renal tubular necrosis (Table S1).
RNA-seq, and trimming, filtering and normalization of raw data, was performed by Edinburgh Genomics. 1 μg of total RNA/sample was used for sequencing library preparation using an Illumina TruSeq stranded mRNA kit. Sequencing was performed using a Novaseq S1 50 Paired-end run to produce 50–64 million read-pairs per sample. Reads were trimmed using Cutadapt and were aligned to the Homo sapiens reference genome (GRCh38; from Ensembl) using STAR. Standard GTF-format annotation for the reference genome (annotation version 84) was used. Reads were assigned to features of type ‘exon’ in the input annotation grouped by gene_id in the reference genome using Feature Counts. The raw count data were filtered to remove very low-expressed genes (genes consisting predominantly of near-zero counts), filtering was performed on counts per million to avoid artefacts due to library depth. Reads were normalised using the weighted trimmed mean of M-values method. Differential analysis (comparing the low-treated group to the control group, or the high-treated group to the control group) was carried out using edgeR4. Fold-changes were estimated as per the default behavior of edgeR, to avoid artefacts which occur with empirical calculation. Statistical assessment of differential expression was carried out with the quasi-likelihood (QL) F-test.
We performed a PANTHER Over-representation Test using the annotation version GO Ontology database. For the functional classification, the same list of genes was used in a Panther functional classification analysis selecting the ontology Biological Process and the ontology Molecular Function.

CNC(C)C1CCC(N)C(OC2C(N)CC(N)C(OC3OCC(C)(O)C(NC)C3O)C2O)O1 (stereo not drawn) [Gentamicin]
Number of genes with decreased expression (4 mg/mL): 1770 | Number of genes with increased expression (4 mg/mL): 2,221 | Log2FC ATF3 (4 mg/mL vs control): 3.08 | Log2FC FOS (4 mg/mL vs control): 3.871 | Log2FC HRK (4 mg/mL vs control): 3.328 | Log2FC HSPA1A (4 mg/mL vs control): 2.663 | Log2FC HSPA1B (4 mg/mL vs control): 2.887 | Log2FC HSPA6 (4 mg/mL vs control): 5.206 | Log2FC JDP2 (4 mg/mL vs control): 1.882 | Log2FC JUN (4 mg/mL vs control): 1.373 | Log2FC LTA (4 mg/mL vs control): 3.873 | log-fold increase TRIB3 (4 mg/mL vs control): 2.14
